Tested on: AAV2
Test: AAV2 release after cell lysis (physical titer by ELISA, genome titer by qPCR)
Format: cell-based
Protocol: An AAV2 suspension upstream process is performed including a cell lysis step using various single reagents, like Triton X-100 (T100) or TDAO at various concentrations or 0.5 M NaCl, all at 37° C. The samples were centrifuged at ~13000 g for 5 min at different time points post lysis, and supernatants were removed and stored at -70° C. for assays. Physical titers were measured by enzyme-linked immunosorbent assay (ELISA) using an AAV2 Titration ELISA kit (Progen) following manufacturer’s protocol, genome titers were measured by quantitative PCR (qPCR) targeting a specific sequence within the transfer vector. All reagents and assay protocols are from MilliporeSigma unless otherwise specified. Among all the conditions tested, 0.5 M NaCl was the only one capable of releasing significant amounts of AAV2 at physical titer of e10 vp/mL and genome titer of e9 gc/mL levels (FIG. 1). Moreover, time-dependent effects from 30 min to 90 min post lysis for all 3 single reagents, and concentration-dependent effects from 0.5% to 1% for both single detergents have been observed (FIG. 1).
The same process is performed as in Example 1 but with NaCl combined with different detergents.
To investigate the optimal concentration of TDAO in combination with 0.5 M NaCl, an AAV2 dissociation test using 0 to 4% of TDAO and including an additional lysis time of 60 min was performed. […]

## CCCCCCCCCCCCCC[N+](C)(C)[O-] [TDAO, N,N-Dimethyltertra decylamine N-oxide]
AAV2 dissociation test, 0 to 4% of TDAO, FIG. 3
  optimal concentration in combination with 0.5 M NaCl: 2%
TDAO in combination with 0.5 M NaCl, based on genome titers
  best lysis time: 90 min

Source: patent US20230183656A1, “METHODS AND COMPOSITIONS FOR PURIFYING ADENO ASSOCIATED VIRUS PARTICLES OR ADENOVIRUSES” (Merck Patent GmbH, priority 2020, published 2023)
